Results reported in patent US20100233678.

Tests used:
[1] = tested on: IgG Fc fragment (Homo sapiens); assay: filter binding; details: negligible; 37.5 mM NaCl, 3.75 mM sodium citrate, pH 6.0; purified native protein; single-stranded DNA
beta-thrombin = assay: binding assay; details: inosine at positions 1 and 10 [inosine at 1,10]; about 2 min, just after void; gamma-thrombin same; purified native protein; single-stranded DNA; letters built from the parent sequence and the stated change; variant of RAD13 (TTT-aptamer); counted as no binding
alpha-thrombin = assay: binding assay; details: inosine at positions 1 and 10 [inosine at 1,10]; affinity column; 125 mM TEAA, 10 mM KCl pH 6.5, LiCl gradient; purified native protein; single-stranded DNA; letters built from the parent sequence and the stated change; variant of RAD13 (TTT-aptamer)
gamma-thrombin = assay: binding assay; details: I = inosine [1, 10 (inosine in place of G)]; affinity column; elutes just after void peak; purified native protein; folded or branched DNA; letters built from the parent sequence and the stated change; variant of TTT-aptamer
IgG Fab'2 fragment = assay: pull-down; details: 5' aminohexyl, on Sepharose, purified native protein
[2] = tested on: IgG, polyclonal (ChromPure) (Homo sapiens); assay: pull-down; details: 5' aminohexyl, Sepharose-immobilized; control oligo, much lower retention than H2 and C7; 100 mM TEAA, 20 mM Mg2+, pH 7; purified native protein; protein details: Jackson ImmunoResearch; single-stranded DNA

CCTTCCTTTGGAAGGTTG [RAD23]: no binding [1].

“GGTTGGTTTGGTTGG [inosine-variant anti-thrombin TAL]” gave a binding signal (min retention) (beta-thrombin) of 2, a binding signal (min retention) (alpha-thrombin) of 9 and a binding signal (min retention) (gamma-thrombin) of 2.

TGTGTGTGTGTGTGT [(TG)7T control]: binds more weakly (IgG Fab'2 fragment; single-stranded DNA); binds more weakly [2].

TTTTCGCGCGTACGCGCGCGAA [RAD15]: no binding [1].

TTTTCGCGCGTTAACGCGCGAA [RAD16]: no binding [1].

TTTTCGCGCGTTTCCGCGCGAA [C7]: binds (IgG Fab'2 fragment; retention H2>C7>>TG repeat>blank, 100 mM TEAA, 20 mM Mg2+, pH 7, single-stranded DNA).

TTTTGGTTGGGGTGGTTGG [H2]: binds (IgG Fab'2 fragment; retention H2>C7>>TG repeat>blank, 100 mM TEAA, 20 mM Mg2+, pH 7, folded or branched DNA).

For some of these results: For at least one entry, the source does not settle the construct or the ends of the probe. For some of these results: No signal at the amounts used counts as a negative. For some of these results: A weaker result is weaker than the reference pair of the same experiment. For some of these results: The direction of at least one scale is not stated here.
